Laboratory results: the supplement of paper PMC10849652
This is one part of the list.

Protein sequences, listed by entry. Tags and fused reporters are not part of them. Lines headed by an entry give the natural chain unless they say otherwise; changes in a name come on top.
UniProt P0C0S5, whole entry, looked up: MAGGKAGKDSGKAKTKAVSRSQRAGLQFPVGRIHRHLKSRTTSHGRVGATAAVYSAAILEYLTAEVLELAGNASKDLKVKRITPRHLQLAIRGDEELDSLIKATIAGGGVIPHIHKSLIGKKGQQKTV
UniProt Q8NEC7: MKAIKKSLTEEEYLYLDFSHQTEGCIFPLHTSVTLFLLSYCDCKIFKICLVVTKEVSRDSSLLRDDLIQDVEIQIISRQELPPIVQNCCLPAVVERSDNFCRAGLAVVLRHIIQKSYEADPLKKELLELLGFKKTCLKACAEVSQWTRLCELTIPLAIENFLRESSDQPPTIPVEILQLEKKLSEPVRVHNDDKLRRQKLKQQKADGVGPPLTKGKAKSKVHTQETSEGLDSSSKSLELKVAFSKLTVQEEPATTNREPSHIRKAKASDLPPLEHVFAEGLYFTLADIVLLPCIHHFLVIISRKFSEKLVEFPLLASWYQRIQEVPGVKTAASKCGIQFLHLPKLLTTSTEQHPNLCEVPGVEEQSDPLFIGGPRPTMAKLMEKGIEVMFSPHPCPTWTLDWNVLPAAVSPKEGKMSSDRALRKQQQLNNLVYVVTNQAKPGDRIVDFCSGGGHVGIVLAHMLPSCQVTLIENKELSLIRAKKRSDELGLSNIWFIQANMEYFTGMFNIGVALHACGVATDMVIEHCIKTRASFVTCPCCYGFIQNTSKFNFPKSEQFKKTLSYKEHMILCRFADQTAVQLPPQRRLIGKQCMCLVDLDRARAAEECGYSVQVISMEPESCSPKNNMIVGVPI
UniProt Q13547, whole entry, looked up: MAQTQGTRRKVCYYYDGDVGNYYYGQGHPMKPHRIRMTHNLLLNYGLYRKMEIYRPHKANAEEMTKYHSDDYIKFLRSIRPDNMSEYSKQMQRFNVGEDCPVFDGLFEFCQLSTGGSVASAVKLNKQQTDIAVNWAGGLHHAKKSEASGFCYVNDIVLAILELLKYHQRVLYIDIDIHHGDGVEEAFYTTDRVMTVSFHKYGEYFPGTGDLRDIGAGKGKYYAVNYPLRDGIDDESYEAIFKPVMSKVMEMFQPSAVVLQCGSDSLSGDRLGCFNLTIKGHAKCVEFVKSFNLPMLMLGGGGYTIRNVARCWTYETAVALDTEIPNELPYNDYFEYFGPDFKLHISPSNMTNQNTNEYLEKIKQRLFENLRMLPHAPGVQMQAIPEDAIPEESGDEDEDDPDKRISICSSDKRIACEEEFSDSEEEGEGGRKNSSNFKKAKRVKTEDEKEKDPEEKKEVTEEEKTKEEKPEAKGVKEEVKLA
UniProt Q9UBN7: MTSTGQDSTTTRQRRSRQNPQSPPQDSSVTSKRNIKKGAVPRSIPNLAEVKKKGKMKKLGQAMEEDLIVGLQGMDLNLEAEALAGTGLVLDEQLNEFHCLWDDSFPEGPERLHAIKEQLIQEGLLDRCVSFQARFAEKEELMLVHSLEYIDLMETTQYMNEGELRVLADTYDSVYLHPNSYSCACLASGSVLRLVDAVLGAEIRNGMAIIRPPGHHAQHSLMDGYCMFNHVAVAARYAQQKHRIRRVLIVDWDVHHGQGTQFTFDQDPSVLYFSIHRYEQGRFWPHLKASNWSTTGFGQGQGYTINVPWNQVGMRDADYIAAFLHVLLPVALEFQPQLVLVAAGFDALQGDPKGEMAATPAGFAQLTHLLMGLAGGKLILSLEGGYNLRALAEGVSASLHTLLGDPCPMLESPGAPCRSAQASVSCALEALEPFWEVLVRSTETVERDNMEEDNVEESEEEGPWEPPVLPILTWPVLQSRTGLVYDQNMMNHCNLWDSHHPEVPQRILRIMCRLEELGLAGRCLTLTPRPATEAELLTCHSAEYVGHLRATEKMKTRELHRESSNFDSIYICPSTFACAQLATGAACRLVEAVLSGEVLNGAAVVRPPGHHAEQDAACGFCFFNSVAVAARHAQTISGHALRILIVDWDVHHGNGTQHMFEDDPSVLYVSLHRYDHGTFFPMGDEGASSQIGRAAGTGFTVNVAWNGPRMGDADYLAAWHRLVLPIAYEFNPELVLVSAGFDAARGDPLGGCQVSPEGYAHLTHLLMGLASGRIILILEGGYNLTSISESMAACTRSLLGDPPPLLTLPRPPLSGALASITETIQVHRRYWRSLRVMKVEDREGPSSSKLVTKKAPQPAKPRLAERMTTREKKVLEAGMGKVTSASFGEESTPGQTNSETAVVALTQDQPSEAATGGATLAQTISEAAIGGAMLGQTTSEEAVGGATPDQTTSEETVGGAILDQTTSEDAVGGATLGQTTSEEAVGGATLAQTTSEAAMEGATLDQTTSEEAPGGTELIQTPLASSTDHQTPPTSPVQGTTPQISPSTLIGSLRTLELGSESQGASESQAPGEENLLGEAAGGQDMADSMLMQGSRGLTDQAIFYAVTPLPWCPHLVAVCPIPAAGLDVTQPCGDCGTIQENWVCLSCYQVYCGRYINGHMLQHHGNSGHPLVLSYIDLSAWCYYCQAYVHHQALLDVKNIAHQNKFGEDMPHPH
UniProt O95479: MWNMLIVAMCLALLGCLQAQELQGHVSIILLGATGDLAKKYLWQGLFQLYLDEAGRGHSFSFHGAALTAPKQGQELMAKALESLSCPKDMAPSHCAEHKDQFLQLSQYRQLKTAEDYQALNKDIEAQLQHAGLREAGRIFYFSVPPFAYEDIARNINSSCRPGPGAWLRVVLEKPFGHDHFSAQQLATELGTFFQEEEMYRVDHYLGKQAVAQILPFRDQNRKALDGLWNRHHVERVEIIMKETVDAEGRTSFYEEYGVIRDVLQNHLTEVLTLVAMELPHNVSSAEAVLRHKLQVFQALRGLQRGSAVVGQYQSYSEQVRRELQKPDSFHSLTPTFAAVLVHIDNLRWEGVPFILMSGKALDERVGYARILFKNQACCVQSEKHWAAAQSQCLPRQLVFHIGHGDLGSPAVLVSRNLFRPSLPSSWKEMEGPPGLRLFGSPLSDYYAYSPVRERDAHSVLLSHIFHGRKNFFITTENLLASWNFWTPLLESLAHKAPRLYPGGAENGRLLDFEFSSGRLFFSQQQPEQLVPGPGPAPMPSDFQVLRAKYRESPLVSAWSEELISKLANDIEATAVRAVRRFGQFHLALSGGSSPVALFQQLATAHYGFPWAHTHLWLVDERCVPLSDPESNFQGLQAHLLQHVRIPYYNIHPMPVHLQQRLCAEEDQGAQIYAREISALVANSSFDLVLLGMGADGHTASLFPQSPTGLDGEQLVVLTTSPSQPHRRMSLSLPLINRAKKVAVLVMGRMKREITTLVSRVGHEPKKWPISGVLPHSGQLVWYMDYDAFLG
UniProt Q9H0R4: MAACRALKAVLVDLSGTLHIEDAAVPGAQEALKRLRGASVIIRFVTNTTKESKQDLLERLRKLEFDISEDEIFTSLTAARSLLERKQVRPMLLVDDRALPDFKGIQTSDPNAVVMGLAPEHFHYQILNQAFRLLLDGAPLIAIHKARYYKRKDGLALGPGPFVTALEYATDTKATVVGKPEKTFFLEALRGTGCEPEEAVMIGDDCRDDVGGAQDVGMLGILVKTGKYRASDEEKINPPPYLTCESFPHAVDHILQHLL
UniProt Q92664: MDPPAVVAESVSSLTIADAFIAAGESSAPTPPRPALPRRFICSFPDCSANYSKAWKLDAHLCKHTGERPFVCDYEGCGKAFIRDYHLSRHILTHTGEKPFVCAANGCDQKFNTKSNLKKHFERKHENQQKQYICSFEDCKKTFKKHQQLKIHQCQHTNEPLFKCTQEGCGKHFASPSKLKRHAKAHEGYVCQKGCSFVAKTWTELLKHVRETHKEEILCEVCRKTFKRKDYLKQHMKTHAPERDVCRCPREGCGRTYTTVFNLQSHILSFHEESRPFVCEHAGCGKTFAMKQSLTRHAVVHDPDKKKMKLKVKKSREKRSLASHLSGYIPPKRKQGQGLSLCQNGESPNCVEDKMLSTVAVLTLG
UniProt Q96CS2: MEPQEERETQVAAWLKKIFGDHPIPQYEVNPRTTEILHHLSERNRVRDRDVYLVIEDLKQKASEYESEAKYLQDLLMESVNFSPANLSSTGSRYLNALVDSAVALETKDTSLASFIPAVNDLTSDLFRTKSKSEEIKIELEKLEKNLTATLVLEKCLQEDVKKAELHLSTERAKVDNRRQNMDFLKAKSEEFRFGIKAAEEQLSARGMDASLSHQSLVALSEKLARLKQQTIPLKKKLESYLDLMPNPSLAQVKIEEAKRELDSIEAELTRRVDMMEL

How the values were obtained:
Experiment in all cases: log2 fold change, soluble protein after heating vs DMSO (PISA); higher = thermal stabilisation; K562 lysate, 10 uM; active = over 0.2 and 3.5 SD of the protein, either way, in both replicates (recomputed)
[1] = compound: CS(=O)(=O)CCNCc1ccc(-c2ccc3ncnc(Nc4ccc(OCc5cccc(F)c5)c(Cl)c4)c3c2)o1 [lapatinib]
In short: (§1)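 Dounce homogenisation of K562 pellets in PBS pH 7.4 with 1 mM MgCl2 produced a crude extract, used at 1 mg/mL protein. Exposure to 10 μM compound lasted 30 min, and aliquots were then heated for 3 min across 48°C-58°C, pooled and brought to 0.5% NP-40 at 4°C. The supernatant after 21,000xg for 90 min was quantified by TMTpro 16plex LC-MS/MS with channel sums equalised. Duplicate values are given as log-two fold change in thermal stability relative to solvent controls.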

[2] = compound: CS(=O)(=O)N1CCN(Cc2cc3nc(-c4cccc5[nH]ncc45)nc(N4CCOCC4)c3s2)CC1 [pictilisib]
In short: as §1

[3] = compound: C[C@@H](Oc1cc(-c2cnn(C3CCNCC3)c2)cnc1N)c1c(Cl)ccc(F)c1Cl [crizotinib]
In short: as §1

[4] = compound: C[C@H](C1=CC=C(C=C1)C(=O)NC2=C3C=CNC3=NC=C2)N
In short: as §1

[5] = compound: C[C@H](Nc1ncnc2nc[nH]c12)c1cc2cccc(Cl)c2c(=O)n1-c1ccccc1 [duvelisib]
In short: as §1

[6] = compound: Cc1cc(Nc2cc(CN3CCOCC3)c3nc(C)c(Cc4ccc(Cl)cc4F)n3n2)n[nH]1 [gandotinib]
In short: as §1

[7] = compound: Cc1cc(Nc2cc(N3CCN(C)CC3)nc(Sc3ccc(NC(=O)C4CC4)cc3)n2)n[nH]1 [tozasertib]
In short: as §1

[8] = compound: Cc1ccc(-n2nc(C(C)(C)C)cc2NC(=O)Nc2ccc(OCCN3CCOCC3)c3ccccc23)cc1 [doramapimod]
In short: as §1

[9] = compound: Cc1ccc(NC(=O)c2ccc(CN3CC[C@H](N(C)C)C3)c(C(F)(F)F)c2)cc1Nc1nccc(-c2cncnc2)n1 [bafetinib]
In short: as §1

[10] = compound: Cc1cccc(CC(=O)N2CCc3c2ccc(-c2cn(C)c4ncnc(N)c24)c3F)n1
In short: as §1

[11] = compound: Cc1cn(-c2cc(NC(=O)c3ccc(C)c(Nc4nccc(-c5cccnc5)n4)c3)cc(C(F)(F)F)c2)cn1 [nilotinib]
In short: as §1

[12] = compound: Cc1nc(Nc2n[nH]c3c2CN(C(=O)N[C@H](CN(C)C)c2ccccc2)C3(C)C)c2sccc2n1
In short: as §1

[13] = compound: Cc1nc(Nc2ncc(C(=O)Nc3c(C)cccc3Cl)s2)cc(N2CCN(CCO)CC2)n1 [dasatinib]
In short: as §1

[14] = compound: Cc1ncc(-c2ccnc(Nc3ccc(S(C)(=O)=O)cc3)n2)n1C(C)C
In short: as §1

[15] = compound: Cn1cc(-c2ccc3c(c2)CCN3C(=O)Cc2cccc(C(F)(F)F)c2)c2c(N)ncnc21
In short: as §1

[16] = compound: Cn1cc(CNCC2CCN(c3ncc(C(=O)NO)cn3)CC2)c2ccccc21 [quisinostat]
In short: as §1

[17] = compound: Cn1cncc1[C@@](N)(c1ccc(Cl)cc1)c1ccc2c(c1)c(-c1cccc(Cl)c1)cc(=O)n2C [tipifarnib]
In short: as §1

[18] = compound: NC(=O)Nc1cc(-c2cccc(F)c2)sc1C(=O)N[C@H]1CCCNC1
In short: as §1

[19] = compound: NC(=O)c1cnc(N[C@@H]2CCCC[C@@H]2N)nc1Nc1cccc(-n2nccn2)c1
In short: as §1

[20] = compound: NC1(c2ccc(-c3nc4ccn5c(=O)[nH]nc5c4cc3-c3ccccc3)cc2)CCC1
In short: as §1

Row | Target | log2 fold change [1] | log2 fold change [2] | log2 fold change [3] | log2 fold change [4] | log2 fold change [5] | log2 fold change [6] | log2 fold change [7] | log2 fold change [8] | log2 fold change [9] | log2 fold change [10] | log2 fold change [11] | log2 fold change [12] | log2 fold change [13] | log2 fold change [14] | log2 fold change [15] | log2 fold change [16] | log2 fold change [17] | log2 fold change [18] | log2 fold change [19] | log2 fold change [20]
1 | H2AZ1 (UniProt P0C0S5) | inactive: -0.017 | inactive: -0.028 | inactive: 0.01 | inactive: 0.024 | inactive: -0.061 | inactive: 0.016 | inactive: -0.048 | inactive: 0.032 | inactive: -0.097 | inactive: -0.031 | inactive: -0.004 | inactive: -0.007 | inactive: -0.018 | inactive: -0.011 | inactive: 0.016 | inactive: -0.077 | inactive: -0.055 | inactive: 0.03 | inactive: -0.02 | inactive: 0.009
2 | GSTCD (UniProt Q8NEC7) | inactive: -0.006 | inactive: -0.015 | inactive: -0.037 | inactive: -0.058 | inactive: 0.09 | inactive: 0.036 | inactive: -0.037 | inactive: 0 | inactive: -0.053 | inactive: 0.01 | inactive: 0.039 | inactive: -0.04 | inactive: -0.003 | inactive: -0.005 | inactive: -0.098 | inactive: -0.053 | inactive: 0.01 | inactive: 0.08 | inactive: -0.014 | inactive: -0.008
3 | HDAC1 (UniProt Q13547) | inactive: 0.004 | inactive: 0.01 | inactive: -0.014 | inactive: -0.04 | inactive: -0.029 | inactive: -0.004 | inactive: -0.015 | inactive: 0.006 | inactive: 0.036 | inactive: 0.036 | inactive: 0.01 | inactive: -0.024 | inactive: -0.021 | inactive: -0.019 | inactive: 0.028 | active: 0.857 | inactive: -0.041 | inactive: -0.033 | inactive: 0.03 | inactive: 0.009
4 | HDAC6 (UniProt Q9UBN7) | inactive: -0.019 | inactive: -0.085 | inactive: -0.039 | inactive: 0.014 | inactive: 0.065 | inactive: -0.017 | inactive: 0.002 | inactive: 0.012 | inactive: -0.069 | inactive: -0.01 | inactive: 0.078 | inactive: -0.016 | inactive: -0.06 | inactive: -0.034 | inactive: 0.042 | inactive: 0.031 | inactive: 0.024 | inactive: -0.01 | inactive: 0.034 | inactive: -0.027
5 | H6PD (UniProt O95479) | inactive: -0.049 | inactive: -0.105 | inactive: 0.069 | inactive: -0.03 | inactive: 0.065 | inactive: 0.055 | inactive: -0.006 | inactive: -0.138 | inactive: -0.129 | inactive: 0.067 | inactive: 0.246 | inactive: 0.188 | inactive: -0.087 | inactive: 0.031 | inactive: 0.03 | inactive: 0.011 | inactive: 0.089 | inactive: 0.08 | inactive: 0.014 | inactive: -0.045
6 | HDHD2 (UniProt Q9H0R4) | inactive: -0.019 | inactive: -0.023 | inactive: 0.025 | inactive: 0.017 | inactive: 0.043 | inactive: 0.017 | inactive: 0.053 | inactive: 0.004 | inactive: 0.059 | inactive: -0.042 | inactive: 0.047 | inactive: -0.052 | inactive: 0.031 | inactive: 0.035 | inactive: 0.014 | inactive: 0.032 | inactive: 0.004 | inactive: 0 | inactive: -0.013 | inactive: 0.05
7 | GTF3A (UniProt Q92664) | inactive: -0.068 | inactive: 0.119 | inactive: -0.099 | inactive: 0.095 | inactive: 0.077 | inactive: -0.097 | inactive: -0.001 | inactive: 0.036 | inactive: -0.075 | inactive: -0.106 | inactive: 0.035 | inactive: 0.022 | inactive: 0.037 | inactive: 0.126 | inactive: 0 | inactive: 0.079 | inactive: 0.052 | inactive: -0.001 | inactive: 0.039 | inactive: 0.064
8 | HAUS1 (UniProt Q96CS2) | inactive: 0.022 | inactive: -0.068 | inactive: -0.001 | inactive: 0.034 | inactive: 0.009 | inactive: 0.019 | inactive: -0.027 | inactive: -0.017 | inactive: -0.051 | inactive: -0.051 | inactive: 0.013 | inactive: -0.012 | inactive: -0.009 | inactive: -0.01 | inactive: -0.004 | inactive: -0.05 | inactive: -0.011 | inactive: 0.001 | inactive: -0.016 | inactive: -0.006
